Data taken from the supplement of paper PMC10849652.
Some of the results follow.

Amino acid sequences for entries named in this document (tags omitted). A change or cut given only in a name is not applied to a line headed by its entry.
UniProt O60779: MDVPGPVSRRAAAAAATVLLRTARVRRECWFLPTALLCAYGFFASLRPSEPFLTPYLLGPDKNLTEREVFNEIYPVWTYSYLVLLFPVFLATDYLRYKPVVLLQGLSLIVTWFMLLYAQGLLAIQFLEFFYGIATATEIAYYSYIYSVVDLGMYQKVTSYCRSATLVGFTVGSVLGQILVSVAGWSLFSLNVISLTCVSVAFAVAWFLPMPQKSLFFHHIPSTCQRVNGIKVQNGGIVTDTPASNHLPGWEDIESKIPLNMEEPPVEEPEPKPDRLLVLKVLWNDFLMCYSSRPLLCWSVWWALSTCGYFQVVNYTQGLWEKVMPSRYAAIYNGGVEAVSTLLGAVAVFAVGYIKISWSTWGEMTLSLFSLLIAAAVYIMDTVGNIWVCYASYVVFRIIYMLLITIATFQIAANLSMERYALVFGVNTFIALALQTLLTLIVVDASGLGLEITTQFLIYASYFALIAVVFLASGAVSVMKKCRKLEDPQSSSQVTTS
UniProt Q15477, whole entry, looked up: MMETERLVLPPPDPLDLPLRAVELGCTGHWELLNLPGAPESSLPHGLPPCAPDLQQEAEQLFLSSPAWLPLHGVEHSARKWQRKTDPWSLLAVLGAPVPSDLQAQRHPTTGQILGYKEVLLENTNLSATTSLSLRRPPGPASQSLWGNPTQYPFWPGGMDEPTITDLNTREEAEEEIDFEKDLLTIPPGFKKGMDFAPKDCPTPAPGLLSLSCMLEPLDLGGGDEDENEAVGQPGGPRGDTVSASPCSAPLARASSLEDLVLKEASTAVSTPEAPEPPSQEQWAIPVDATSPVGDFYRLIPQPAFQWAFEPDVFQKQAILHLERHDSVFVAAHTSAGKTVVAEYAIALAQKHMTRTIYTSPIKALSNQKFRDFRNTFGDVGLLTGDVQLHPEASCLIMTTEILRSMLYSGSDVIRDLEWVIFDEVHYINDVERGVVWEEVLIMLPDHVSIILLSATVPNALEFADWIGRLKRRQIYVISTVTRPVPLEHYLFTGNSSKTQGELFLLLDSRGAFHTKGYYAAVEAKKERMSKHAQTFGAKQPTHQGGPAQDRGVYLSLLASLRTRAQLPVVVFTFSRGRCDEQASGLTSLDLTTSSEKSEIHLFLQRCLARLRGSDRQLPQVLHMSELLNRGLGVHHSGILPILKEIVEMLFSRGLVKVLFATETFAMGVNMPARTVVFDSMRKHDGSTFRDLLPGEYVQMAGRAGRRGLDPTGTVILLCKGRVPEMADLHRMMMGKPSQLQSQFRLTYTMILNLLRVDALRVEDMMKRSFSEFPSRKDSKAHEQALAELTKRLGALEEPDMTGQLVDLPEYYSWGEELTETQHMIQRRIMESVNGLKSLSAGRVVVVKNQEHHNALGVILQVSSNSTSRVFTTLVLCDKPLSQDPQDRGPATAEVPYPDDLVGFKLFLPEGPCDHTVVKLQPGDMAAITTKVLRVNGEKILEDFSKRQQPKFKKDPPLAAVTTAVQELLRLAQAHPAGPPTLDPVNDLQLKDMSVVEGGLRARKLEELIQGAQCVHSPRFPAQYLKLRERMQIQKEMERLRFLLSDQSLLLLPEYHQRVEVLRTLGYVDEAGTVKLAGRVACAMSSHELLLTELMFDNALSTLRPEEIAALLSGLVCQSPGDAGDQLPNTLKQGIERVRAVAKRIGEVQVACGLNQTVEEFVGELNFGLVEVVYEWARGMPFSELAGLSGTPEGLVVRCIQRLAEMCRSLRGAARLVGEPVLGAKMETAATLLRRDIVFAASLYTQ
UniProt Q6IA17: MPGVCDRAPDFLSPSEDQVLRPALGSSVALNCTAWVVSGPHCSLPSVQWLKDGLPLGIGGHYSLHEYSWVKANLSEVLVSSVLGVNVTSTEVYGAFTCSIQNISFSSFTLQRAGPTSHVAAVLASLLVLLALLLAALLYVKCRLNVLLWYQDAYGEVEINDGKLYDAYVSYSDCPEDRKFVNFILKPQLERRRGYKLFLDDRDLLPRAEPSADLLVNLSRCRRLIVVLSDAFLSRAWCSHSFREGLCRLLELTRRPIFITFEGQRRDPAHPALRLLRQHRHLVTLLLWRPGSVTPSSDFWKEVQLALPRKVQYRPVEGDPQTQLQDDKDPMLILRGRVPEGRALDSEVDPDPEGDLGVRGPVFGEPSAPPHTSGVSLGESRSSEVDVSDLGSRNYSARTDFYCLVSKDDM
UniProt O75182: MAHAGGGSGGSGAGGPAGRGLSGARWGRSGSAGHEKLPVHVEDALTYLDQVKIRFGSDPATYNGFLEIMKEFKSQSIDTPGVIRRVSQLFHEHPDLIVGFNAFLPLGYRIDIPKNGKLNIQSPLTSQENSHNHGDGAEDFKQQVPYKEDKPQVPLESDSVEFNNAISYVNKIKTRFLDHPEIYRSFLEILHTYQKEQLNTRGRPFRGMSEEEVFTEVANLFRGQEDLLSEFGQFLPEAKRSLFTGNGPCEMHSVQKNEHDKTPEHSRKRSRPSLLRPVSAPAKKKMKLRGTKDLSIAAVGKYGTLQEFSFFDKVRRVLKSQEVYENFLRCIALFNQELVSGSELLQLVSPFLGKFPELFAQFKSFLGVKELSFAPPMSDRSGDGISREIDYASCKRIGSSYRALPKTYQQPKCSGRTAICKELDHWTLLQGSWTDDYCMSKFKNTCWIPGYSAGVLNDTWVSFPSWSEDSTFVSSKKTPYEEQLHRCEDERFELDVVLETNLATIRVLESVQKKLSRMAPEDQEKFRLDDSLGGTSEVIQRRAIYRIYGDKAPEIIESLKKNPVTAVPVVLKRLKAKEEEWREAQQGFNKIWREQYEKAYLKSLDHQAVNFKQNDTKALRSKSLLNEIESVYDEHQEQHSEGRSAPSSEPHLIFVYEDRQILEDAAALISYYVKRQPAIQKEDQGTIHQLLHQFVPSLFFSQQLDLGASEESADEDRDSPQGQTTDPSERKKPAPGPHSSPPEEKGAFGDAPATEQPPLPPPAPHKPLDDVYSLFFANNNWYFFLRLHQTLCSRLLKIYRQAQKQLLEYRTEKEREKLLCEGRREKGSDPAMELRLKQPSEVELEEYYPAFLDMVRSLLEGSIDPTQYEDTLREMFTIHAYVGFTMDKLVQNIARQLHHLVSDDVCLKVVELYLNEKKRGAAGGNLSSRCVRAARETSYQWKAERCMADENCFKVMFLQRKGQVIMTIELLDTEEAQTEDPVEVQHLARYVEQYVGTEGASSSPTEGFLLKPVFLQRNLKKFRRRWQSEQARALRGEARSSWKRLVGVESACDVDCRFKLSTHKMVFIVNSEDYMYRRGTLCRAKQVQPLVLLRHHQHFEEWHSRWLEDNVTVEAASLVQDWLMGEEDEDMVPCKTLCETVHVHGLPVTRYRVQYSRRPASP
UniProt O43255: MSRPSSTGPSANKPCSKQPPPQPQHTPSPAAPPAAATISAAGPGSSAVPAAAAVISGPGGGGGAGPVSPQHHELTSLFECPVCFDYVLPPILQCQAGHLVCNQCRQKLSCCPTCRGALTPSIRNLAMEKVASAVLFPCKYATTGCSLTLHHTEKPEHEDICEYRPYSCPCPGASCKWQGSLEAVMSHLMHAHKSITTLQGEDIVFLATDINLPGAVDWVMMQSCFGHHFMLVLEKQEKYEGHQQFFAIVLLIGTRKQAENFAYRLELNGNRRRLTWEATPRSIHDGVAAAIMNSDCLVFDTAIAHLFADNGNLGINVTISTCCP
UniProt Q9H0F6: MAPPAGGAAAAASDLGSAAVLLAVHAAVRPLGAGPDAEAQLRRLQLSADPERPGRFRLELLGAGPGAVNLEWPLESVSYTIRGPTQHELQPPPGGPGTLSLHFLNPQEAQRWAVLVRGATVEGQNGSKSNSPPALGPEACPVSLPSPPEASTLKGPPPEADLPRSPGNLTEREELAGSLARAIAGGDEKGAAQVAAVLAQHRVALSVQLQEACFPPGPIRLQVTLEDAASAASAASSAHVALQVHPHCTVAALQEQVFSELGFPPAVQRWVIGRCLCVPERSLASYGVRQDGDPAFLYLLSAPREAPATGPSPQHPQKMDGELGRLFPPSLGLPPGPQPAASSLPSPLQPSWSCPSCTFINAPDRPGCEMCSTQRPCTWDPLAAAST
UniProt P08697: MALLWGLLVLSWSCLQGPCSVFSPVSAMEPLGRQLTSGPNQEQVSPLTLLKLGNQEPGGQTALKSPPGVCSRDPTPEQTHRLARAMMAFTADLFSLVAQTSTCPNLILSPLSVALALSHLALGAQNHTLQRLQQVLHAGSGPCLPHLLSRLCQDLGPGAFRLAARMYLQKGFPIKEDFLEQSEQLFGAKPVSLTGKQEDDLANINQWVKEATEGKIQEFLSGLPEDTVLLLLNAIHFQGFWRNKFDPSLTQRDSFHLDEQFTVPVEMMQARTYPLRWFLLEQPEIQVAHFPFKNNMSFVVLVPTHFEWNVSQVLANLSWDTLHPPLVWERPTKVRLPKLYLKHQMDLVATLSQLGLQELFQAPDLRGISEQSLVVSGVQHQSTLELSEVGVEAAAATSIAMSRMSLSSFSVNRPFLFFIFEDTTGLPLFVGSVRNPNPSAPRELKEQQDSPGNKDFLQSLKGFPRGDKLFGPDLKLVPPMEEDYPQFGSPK
UniProt Q96HU1: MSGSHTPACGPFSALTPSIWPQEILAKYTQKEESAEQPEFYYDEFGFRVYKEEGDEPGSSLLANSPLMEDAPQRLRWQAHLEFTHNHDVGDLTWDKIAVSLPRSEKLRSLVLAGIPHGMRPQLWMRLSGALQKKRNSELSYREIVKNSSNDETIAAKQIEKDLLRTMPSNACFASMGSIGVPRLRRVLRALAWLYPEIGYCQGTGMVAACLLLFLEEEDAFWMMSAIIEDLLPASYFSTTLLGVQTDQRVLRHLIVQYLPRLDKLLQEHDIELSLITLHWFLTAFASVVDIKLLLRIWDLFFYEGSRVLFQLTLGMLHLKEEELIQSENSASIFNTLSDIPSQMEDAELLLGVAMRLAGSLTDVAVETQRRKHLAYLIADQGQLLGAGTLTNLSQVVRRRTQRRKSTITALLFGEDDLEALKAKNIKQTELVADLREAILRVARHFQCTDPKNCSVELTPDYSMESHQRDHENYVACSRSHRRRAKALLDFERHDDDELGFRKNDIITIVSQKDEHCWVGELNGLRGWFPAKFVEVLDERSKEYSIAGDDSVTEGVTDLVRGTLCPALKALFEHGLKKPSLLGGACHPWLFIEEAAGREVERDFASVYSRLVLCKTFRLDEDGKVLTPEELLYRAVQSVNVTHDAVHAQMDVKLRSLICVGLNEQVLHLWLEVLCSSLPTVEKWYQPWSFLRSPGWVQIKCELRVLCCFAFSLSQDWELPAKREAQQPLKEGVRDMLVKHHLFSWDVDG
UniProt O75635: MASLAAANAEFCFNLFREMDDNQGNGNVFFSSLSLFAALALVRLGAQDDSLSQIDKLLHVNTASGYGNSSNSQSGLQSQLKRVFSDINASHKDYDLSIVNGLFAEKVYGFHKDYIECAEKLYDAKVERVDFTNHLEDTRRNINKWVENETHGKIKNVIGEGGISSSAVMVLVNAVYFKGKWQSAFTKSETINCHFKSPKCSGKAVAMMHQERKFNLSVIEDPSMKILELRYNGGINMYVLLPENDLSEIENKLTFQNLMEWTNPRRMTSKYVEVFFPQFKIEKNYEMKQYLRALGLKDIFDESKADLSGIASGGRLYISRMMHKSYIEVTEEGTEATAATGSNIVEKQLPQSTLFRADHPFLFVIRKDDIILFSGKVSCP
UniProt P01009, whole entry, looked up: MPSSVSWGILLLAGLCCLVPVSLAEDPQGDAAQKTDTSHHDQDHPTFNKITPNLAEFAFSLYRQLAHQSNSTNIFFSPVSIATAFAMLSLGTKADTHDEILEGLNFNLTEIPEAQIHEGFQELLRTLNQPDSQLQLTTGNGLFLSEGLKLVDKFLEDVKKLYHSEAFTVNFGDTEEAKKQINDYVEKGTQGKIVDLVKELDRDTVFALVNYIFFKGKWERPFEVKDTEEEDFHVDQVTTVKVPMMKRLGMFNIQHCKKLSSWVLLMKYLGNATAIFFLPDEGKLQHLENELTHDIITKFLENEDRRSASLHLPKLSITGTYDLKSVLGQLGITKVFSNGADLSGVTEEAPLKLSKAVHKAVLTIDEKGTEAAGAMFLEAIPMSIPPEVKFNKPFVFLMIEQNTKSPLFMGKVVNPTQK
UniProt Q8IUQ4: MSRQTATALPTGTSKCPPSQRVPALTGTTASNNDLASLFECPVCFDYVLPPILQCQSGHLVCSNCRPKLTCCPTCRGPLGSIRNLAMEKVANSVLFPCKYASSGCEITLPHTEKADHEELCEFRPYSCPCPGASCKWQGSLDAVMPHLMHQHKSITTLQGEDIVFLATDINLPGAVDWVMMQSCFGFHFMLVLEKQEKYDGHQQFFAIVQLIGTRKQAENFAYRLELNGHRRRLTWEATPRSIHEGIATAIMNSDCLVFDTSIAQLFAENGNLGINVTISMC
UniProt Q587I9: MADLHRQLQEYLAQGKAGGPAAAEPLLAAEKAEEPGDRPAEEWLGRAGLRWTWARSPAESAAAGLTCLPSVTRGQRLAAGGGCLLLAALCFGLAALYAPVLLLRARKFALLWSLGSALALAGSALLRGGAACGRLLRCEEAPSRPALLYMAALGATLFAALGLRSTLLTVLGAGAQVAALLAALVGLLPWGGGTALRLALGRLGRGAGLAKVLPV

Legend:
Experiment in all cases: log2 fold change, soluble protein after heating vs DMSO (PISA); higher = thermal stabilisation; K562 lysate, 10 uM; active = over 0.2 and 3.5 SD of the protein, either way, in both replicates (recomputed)
[1] = compound: CCCS(=O)(=O)Nc1ccc(F)c(C(=O)c2c[nH]c3ncc(Cl)cc23)c1F
Method in brief: (§1)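 A 30 min treatment with 10 μM compound was applied to crude K562 extract at 1 mg/mL protein in PBS pH 7.4 with 1 mM MgCl2. Heating for 3 min spanned 48°C-58°C, after which aliquots were pooled, adjusted to 0.5% NP-40 at 4°C and spun at 21,000xg for 90 min. TMTpro 16plex LC-MS/MS of the supernatant, with channel sums equalised, gave values recorded as log-two fold change in thermal stability against solvent controls, from duplicates.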

barasertib = compound: CCN(CCCOc1ccc2c(Nc3cc(CC(=O)Nc4cccc(F)c4)[nH]n3)ncnc2c1)CCOP(=O)(O)O [barasertib]
Method in brief: as §1

[2] = compound: CC[C@@H]1C(=O)N(C)c2cnc(Nc3ccc(C(=O)NC4CCN(C)CC4)cc3OC)nc2N1C1CCCC1
Method in brief: as §1

volasertib = compound: CC[C@@H]1C(=O)N(C)c2cnc(Nc3ccc(C(=O)N[C@H]4CC[C@H](N5CCN(CC6CC6)CC5)CC4)cc3OC)nc2N1C(C)C [volasertib]
Method in brief: as §1

[3] = compound: CCn1cc(-c2ccnc3[nH]c(-c4cccc(CN(C)C)c4)cc23)c(-c2ccc(NC(=O)N(C)C)cc2)n1
Method in brief: as §1

[4] = compound: CN1CCC(CNc2ccc3ncc(-c4cccc(OC(F)(F)F)c4)n3n2)CC1
Method in brief: as §1

saracatinib = compound: CN1CCN(CCOc2cc(OC3CCOCC3)c3c(Nc4c(Cl)ccc5c4OCO5)ncnc3c2)CC1 [saracatinib]
Method in brief: as §1

alvocidib = compound: CN1CC[C@H](c2c(O)cc(O)c3c(=O)cc(-c4ccccc4Cl)oc23)[C@H](O)C1 [alvocidib]
Method in brief: as §1

[5] = compound: CNc1nc(-c2ccc3c(N)n[nH]c3c2)cc(N2C[C@@H](C(=O)NC3CCCCC3)CC[C@H]2C)n1
Method in brief: as §1

encorafenib = compound: COC(=O)N[C@@H](C)CNc1nccc(-c2cn(C(C)C)nc2-c2cc(Cl)cc(NS(C)(=O)=O)c2F)n1 [encorafenib]
Method in brief: as §1

[6] = compound: COC(=O)[C@H](CCSC)NC(=O)C1=C(C=C(C=C1)NC[C@H](CS)N)C2=CC=CC=C2
Method in brief: as §1

alisertib = compound: COc1cc(Nc2ncc3c(n2)-c2ccc(Cl)cc2C(c2c(F)cccc2OC)=NC3)ccc1C(=O)O [alisertib]
Method in brief: as §1

[7] = compound: COc1cc2nc(-c3cc(F)ccc3O)nc(N[C@@H]3CNC[C@H]3C(C)(C)O)c2cc1OC
Method in brief: as §1

gefitinib = compound: COc1cc2ncnc(Nc3ccc(F)c(Cl)c3)c2cc1OCCCN1CCOCC1 [gefitinib]
Method in brief: as §1

vemurafenib = compound: CCCS(=O)(=O)Nc1ccc(F)c(C(=O)c2c[nH]c3ncc(-c4ccc(Cl)cc4)cc23)c1F [vemurafenib]
Method in brief: as §1

defactinib = compound: CNC(=O)c1ccc(Nc2ncc(C(F)(F)F)c(NCc3nccnc3N(C)S(C)(=O)=O)n2)cc1 [defactinib]
Method in brief: as §1

[8] = compound: CCn1c(C(=O)N(C2CC2)C2CC2)cc2c3c(ncn3C)c(Nc3cc(C)n(C)n3)nc21
Method in brief: as §1

Tubastatin A = compound: CN1CCc2c(c3ccccc3n2Cc2ccc(C(=O)NO)cc2)C1 [Tubastatin A]
Method in brief: as §1

[9] = compound: CNC(=O)C1=CC=CC=C1NC2=NC(=NC=C2Cl)NC3=C(C=C(C=C3)N4CCOCC4)OC
Method in brief: as §1

sotrastaurin = compound: CN1CCN(c2nc(C3=C(c4c[nH]c5ccccc45)C(=O)NC3=O)c3ccccc3n2)CC1 [sotrastaurin]
Method in brief: as §1

Measured: log2 fold change

SLC19A2 (UniProt O60779)
inactive: [1] -0.025 | barasertib -0.101 | [2] 0.178 | volasertib -0.008 | [3] -0.099 | [4] 0.011 | saracatinib 0.044 | alvocidib 0.059 | [5] 0.097 | encorafenib -0.007 | [6] 0.194 | alisertib 0.025 | [7] 0.134 | gefitinib 0.156

SKIV2L (UniProt Q15477)
inactive: vemurafenib -0.154 | defactinib 0.162

SGK3 (UniProt Q96BR1)
inactive: vemurafenib 0.045 | [8] 0.336 | saracatinib -0.066 | Tubastatin A 0.284 | [9] -0.011 | defactinib -0.157 | [5] 0.126

SIX4 (UniProt Q9UIU6)
inactive: [1] 0.039 | barasertib 0.145 | [2] -0.095 | volasertib 0.092 | [8] 0.02 | [3] -0.063 | [4] -0.008 | alvocidib -0.041 | Tubastatin A -0.188 | [9] -0.032 | encorafenib -0.046 | [6] 0.32 | alisertib 0.031 | [7] -0.288 | gefitinib -0.119

SIGIRR (UniProt Q6IA17)
inactive: vemurafenib 0.068 | [1] -0.443 | [2] 0.087 | volasertib 0.011 | [3] 0.09 | [4] -0.097 | alvocidib -0.094 | defactinib -0.03 | encorafenib -0.002 | [6] -0.03 | [7] -0.002

SIN3B (UniProt O75182)
inactive: vemurafenib -0.042 | [2] -0.092 | [3] -0.061 | [4] 0.267 | sotrastaurin -0.099 | alvocidib -0.463 | defactinib 0.185 | encorafenib 0.12 | [6] 0.272 | alisertib -0.064 | gefitinib 0.793

SIAH2 (UniProt O43255)
inactive: vemurafenib 0.003 | [1] -0.026 | barasertib -0.043 | volasertib 0.124 | [3] -0.024 | [4] 0.087 | alvocidib 0.002 | [9] 0.073 | defactinib 0.043 | alisertib -0.002 | [7] 0.091 | gefitinib -0.093

SHARPIN (UniProt Q9H0F6)
inactive: vemurafenib -0.027 | [1] 0.184 | [2] -0.041 | volasertib 0.127 | [8] 0.062 | saracatinib 0.016 | sotrastaurin 0.058 | Tubastatin A -0.145 | [9] 0.077 | defactinib -0.013 | [5] 0.274 | encorafenib 0.08 | [6] -0.008 | alisertib 0.014 | [7] -0.036 | gefitinib -0.035

SERPINF2 (UniProt P08697)
inactive: vemurafenib 0.001 | barasertib 0.053 | [2] 0.049 | [3] 0.606 | [4] -0.096 | sotrastaurin 0.055 | alvocidib -0.009 | defactinib -0.167 | encorafenib 0.034 | [6] 0.041

SKOR2 (UniProt Q2VWA4)
inactive: vemurafenib 0.066 | [1] -0.027 | [2] 0.087 | volasertib 0.008 | [8] -0.145 | [3] -0.529 | [4] 0.343 | saracatinib -0.03 | sotrastaurin 0.024 | alvocidib -0.302 | Tubastatin A -0.021 | [9] -0.053 | defactinib 0.011 | [5] 0.198 | encorafenib 0.022 | [6] 0.02 | [7] 0.123

SH2B3 (UniProt Q9UQQ2)
inactive: vemurafenib 0.085 | [2] 0.028 | sotrastaurin 0.15 | [9] 0.045 | defactinib 0.152 | encorafenib -0.067 | [6] -0.051

SERPINB5 (UniProt P36952)
inactive: [1] -0.055 | barasertib 0.128 | volasertib -0.116 | [8] 0.073 | [3] -0.124 | [4] 0.2 | saracatinib 0.025 | sotrastaurin 0.012 | alvocidib -0.016 | Tubastatin A 0.376 | [9] -0.124 | [5] -0.121 | alisertib -0.174 | [7] -0.103 | gefitinib 0.182

SKI (UniProt P12755)
inactive: [3] 0.124 | [4] 0.052 | alvocidib 0.044

SGSM3 isoform 2 (UniProt Q96HU1)
inactive: [1] 0.038 | volasertib -0.003 | [8] 0.027 | sotrastaurin -0.066 | Tubastatin A 0.023 | [9] 0.105 | alisertib 0.112 | [7] 0 | gefitinib -0.023

SERPINB7 (UniProt O75635)
inactive: [8] -0.206 | sotrastaurin -0.048 | Tubastatin A -0.143

SERPINA1 (UniProt P01009)
inactive: [8] -0.093 | [3] -0.027 | [4] -0.18 | saracatinib 0.068 | alvocidib 0.05 | Tubastatin A 0.078 | [5] -0.181

SIAH1 isoform 2 (UniProt Q8IUQ4)
inactive: [1] 0.022 | volasertib 0.008 | [8] -0.039 | sotrastaurin -0.051 | Tubastatin A 0.011 | [9] 0.008 | alisertib 0.001 | [7] 0.002 | gefitinib -0.004

SFT2D3 (UniProt Q587I9)
inactive: [1] 0.015 | [2] -0.055 | volasertib 0.021 | [8] -0.054 | [3] -0.136 | [4] 0.056 | saracatinib 0.04 | sotrastaurin -0.028 | alvocidib -0.095 | Tubastatin A 0.137 | [9] -0.065 | [5] -0.074 | encorafenib 0.055 | [6] -0.063 | alisertib -0.044 | [7] -0.015 | gefitinib -0.088

Copied from above (5 entries):
SIN3B (UniProt O75182)
inactive: vemurafenib -0.042 | [2] -0.092 | [3] -0.061 | [4] 0.267 | sotrastaurin -0.099 | alvocidib -0.463 | defactinib 0.185 | encorafenib 0.12 | [6] 0.272 | alisertib -0.064 | gefitinib 0.793

SIAH2 (UniProt O43255)
inactive: vemurafenib 0.003 | [1] -0.026 | barasertib -0.043 | volasertib 0.124 | [3] -0.024 | [4] 0.087 | alvocidib 0.002 | [9] 0.073 | defactinib 0.043 | alisertib -0.002 | [7] 0.091 | gefitinib -0.093

SHARPIN (UniProt Q9H0F6)
inactive: vemurafenib -0.027 | [1] 0.184 | [2] -0.041 | volasertib 0.127 | [8] 0.062 | saracatinib 0.016 | sotrastaurin 0.058 | Tubastatin A -0.145 | [9] 0.077 | defactinib -0.013 | [5] 0.274 | encorafenib 0.08 | [6] -0.008 | alisertib 0.014 | [7] -0.036 | gefitinib -0.035

SERPINF2 (UniProt P08697)
inactive: vemurafenib 0.001 | barasertib 0.053 | [2] 0.049 | [3] 0.606 | [4] -0.096 | sotrastaurin 0.055 | alvocidib -0.009 | defactinib -0.167 | encorafenib 0.034 | [6] 0.041

SKOR2 (UniProt Q2VWA4)
inactive: vemurafenib 0.066 | [1] -0.027 | [2] 0.087 | volasertib 0.008 | [8] -0.145 | [3] -0.529 | [4] 0.343 | saracatinib -0.03 | sotrastaurin 0.024 | alvocidib -0.302 | Tubastatin A -0.021 | [9] -0.053 | defactinib 0.011 | [5] 0.198 | encorafenib 0.022 | [6] 0.02 | [7] 0.123
